# According to publication PMC7253433:
# By UniProt entry, the sequences of proteins in these tests, tags left out.
# UniProt O00571: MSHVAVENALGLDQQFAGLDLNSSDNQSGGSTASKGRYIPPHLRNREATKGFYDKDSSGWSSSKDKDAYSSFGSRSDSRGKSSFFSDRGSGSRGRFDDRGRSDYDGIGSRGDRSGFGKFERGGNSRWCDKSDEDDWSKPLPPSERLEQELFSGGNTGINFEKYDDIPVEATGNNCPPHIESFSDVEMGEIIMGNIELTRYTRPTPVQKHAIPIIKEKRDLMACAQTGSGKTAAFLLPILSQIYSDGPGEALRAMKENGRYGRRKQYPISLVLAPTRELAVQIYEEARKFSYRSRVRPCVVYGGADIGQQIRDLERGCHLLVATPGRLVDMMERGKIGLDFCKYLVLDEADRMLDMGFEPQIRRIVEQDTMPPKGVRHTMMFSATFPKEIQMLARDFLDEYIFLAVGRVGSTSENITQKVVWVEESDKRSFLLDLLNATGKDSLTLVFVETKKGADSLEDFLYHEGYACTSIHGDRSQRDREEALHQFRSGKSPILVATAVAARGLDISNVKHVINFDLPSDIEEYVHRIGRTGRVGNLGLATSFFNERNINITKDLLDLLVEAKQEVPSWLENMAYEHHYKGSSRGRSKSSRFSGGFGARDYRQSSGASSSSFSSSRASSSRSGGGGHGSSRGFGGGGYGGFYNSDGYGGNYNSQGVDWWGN
# These are yes or no findings as the source states them, for the method shown. Binding seen in cells or lysates may run through a third protein. Some entries that bind do so weakly or less than the wild type.
# Tests used:
# [1] = molecular target: T1, hnRNP F (human (endogenous in U87 and U251)) (UniProt P52597); test: co-IP; total extracts (TE) of U87 or U251 cells, endogenous proteins, in the presence of RNase and DNase; immunoprecipitation with hnRNP H/F or DHX36 antibody, western blot
# T1 sequence: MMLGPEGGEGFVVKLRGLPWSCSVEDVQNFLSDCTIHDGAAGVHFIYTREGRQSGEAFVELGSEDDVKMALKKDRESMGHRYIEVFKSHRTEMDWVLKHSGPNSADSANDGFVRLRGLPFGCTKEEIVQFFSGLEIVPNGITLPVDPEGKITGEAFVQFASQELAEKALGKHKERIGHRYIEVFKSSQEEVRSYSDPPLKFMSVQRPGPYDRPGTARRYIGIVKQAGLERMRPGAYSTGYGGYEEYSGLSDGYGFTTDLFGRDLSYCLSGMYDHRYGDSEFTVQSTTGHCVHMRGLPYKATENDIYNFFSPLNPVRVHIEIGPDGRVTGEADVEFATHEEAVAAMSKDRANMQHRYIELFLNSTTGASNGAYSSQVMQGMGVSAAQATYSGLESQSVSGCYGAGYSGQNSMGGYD
# [2] = molecular target: T1, hnRNP F (human (endogenous in U87 and U251)); test: co-IP; cytoplasmic extracts (CE; cytosolic + microsomal fractions) of U87 or U251 cells, endogenous proteins, digested with Benzonase and DNase I; hnRNP H/F or DHX36 antibody on beads, 1 mg extract overnight at 4 °C, western blot
substance,measurement,setting,value
DDX3X (from UniProt O00571 1-662) (enzyme),binding,[1],binds
same,binding,[2],binds weakly
